The source of these data is paper PMC7696252.

By UniProt entry, the sequences of proteins in these tests, tags left out.
UniProt Q8N1I0: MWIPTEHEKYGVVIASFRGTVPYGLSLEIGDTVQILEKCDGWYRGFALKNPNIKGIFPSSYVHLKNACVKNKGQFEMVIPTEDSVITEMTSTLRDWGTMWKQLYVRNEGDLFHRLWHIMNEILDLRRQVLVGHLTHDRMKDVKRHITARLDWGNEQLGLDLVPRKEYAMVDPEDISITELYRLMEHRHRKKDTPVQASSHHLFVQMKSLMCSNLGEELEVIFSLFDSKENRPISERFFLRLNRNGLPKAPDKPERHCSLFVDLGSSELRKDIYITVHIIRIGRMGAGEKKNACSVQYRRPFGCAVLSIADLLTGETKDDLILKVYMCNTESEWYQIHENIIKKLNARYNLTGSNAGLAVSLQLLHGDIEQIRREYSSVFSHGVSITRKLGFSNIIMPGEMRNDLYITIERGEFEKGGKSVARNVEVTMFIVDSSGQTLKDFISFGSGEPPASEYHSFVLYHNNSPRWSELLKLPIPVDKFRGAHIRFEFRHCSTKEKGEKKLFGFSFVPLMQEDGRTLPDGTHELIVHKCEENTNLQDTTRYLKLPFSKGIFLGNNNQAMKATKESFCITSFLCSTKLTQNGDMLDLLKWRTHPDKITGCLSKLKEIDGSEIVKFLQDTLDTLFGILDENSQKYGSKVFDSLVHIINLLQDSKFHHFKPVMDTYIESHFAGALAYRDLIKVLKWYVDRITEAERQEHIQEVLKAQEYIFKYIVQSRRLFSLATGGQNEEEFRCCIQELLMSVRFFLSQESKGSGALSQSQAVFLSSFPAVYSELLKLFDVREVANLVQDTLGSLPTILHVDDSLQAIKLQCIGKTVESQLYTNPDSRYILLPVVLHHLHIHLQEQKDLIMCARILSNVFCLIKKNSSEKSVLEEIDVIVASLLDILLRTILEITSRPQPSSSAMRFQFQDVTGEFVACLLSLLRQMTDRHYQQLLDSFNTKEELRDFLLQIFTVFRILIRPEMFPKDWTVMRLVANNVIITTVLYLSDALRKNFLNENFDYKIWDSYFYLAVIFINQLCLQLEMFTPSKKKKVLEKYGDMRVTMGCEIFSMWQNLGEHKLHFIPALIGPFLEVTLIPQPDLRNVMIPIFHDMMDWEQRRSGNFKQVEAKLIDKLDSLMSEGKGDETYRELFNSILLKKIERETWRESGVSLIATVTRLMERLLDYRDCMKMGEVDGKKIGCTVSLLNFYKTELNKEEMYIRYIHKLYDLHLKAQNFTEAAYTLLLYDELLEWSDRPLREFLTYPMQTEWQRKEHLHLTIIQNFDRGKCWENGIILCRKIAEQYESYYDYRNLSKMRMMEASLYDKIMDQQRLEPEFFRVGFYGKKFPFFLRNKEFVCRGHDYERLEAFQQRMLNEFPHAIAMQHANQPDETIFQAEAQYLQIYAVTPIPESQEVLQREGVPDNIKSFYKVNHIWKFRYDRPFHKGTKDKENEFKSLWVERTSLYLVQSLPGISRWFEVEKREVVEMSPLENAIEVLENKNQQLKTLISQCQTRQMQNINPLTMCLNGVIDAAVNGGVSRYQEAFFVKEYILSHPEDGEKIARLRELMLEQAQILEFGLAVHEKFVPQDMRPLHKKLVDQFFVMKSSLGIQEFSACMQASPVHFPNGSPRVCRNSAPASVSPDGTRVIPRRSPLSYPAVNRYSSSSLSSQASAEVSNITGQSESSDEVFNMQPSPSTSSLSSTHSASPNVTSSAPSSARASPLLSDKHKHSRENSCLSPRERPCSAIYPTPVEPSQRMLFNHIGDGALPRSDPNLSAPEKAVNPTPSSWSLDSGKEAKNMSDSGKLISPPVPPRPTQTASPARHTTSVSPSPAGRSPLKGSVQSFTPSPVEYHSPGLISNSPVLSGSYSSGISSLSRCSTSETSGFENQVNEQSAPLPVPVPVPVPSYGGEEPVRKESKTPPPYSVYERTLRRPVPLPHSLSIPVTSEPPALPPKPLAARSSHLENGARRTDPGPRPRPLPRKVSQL

No constants are given. Whether binding was seen depends on the method and setting. Binding seen in cells or lysates may run through a third protein. Some binding calls cover weakened binding; strength is not graded here.

The target of this test is DOCK4 (human (endogenous in MM27 and WM115)) (UniProt Q8N1I0). The test can be described thus: co-IP; lysates (3 mg) of ShcD overexpressing MM27 cells (also WM115 cells) in PLC lysis buffer (50 mM HEPES pH 7.5, 150 mM NaCl, 10% glycerol, 0.5% Triton X-100, 1.5 mM MgCl2, 1 mM EGTA); anti-DOCK4 antibody 3 h at 4 °C, protein A Sepharose 1 h; anti-IgG as negative control; blot with anti-ShcD.

B1: ShcD (protein, UniProt Q6S5L8 1-630)
chain: MRERGQDSLAGLVLYVGLFGHPGMLHRAKYSRFRNESITSLDEGSSGGSVGNKGSPQPPHPALAPHLPTEDATLPSQESPTPLCTLIPRMASMKLANPATLLSLKNFCLGTKEVPRLKLQESRDPGSSGPSSPETSLSRSGTAPPPQQDLVGHRATALTPDSCPLPGPGEPTLRSRQDRHFLQHLLGMGMNYCVRYMGCVEVLQSMRSLDFGMRTQVTREAISRLCEAVPGANGAIKKRKPPVKFLSTVLGKSNLQFSGMNIKLTISTCSLTLMNLDNQQIIANHHMQSISFASGGDPDTTDYVAYVAKDPVNQRACHILECHNGMAQDVISTIGQAFELRFKQYLKNPSLNTSCESEEVHIDSHAEEREDHEYYNEIPGKQPPVGGVSDMRIKVQATEQMAYCPIQCEKLCYLPGNSKCSSVYENCLEQSRAIGNVHPRGVQSQRDTSLLKHTCRVDLFDDPCYINTQALQSTPGSAGNQRSAQPLGSPWHCGKAPETVQPGATAQPASSHSLPHIKQQLWSEECYHGKLSRKAAESLLVKDGDFLVRESATSPGQYVLSGLQGGQAKHLLLVDPEGKVRTKDHVFDNVGHLIRYHMDNSLPIISSGSEVSLKQPVRKDNNPALLHSNK
Consider B1, for which the binding entry was “binds”.
